{"source": "PubChem BioAssay AID2685", "about": "(National Center for Advancing Translational Sciences (NCATS), 2010)", "experiment": "qHTS Assay for Lipid Storage Modulators in Drosophila S3 Cells;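 for cell number change: cells counted by Cell Tracker Red CMTPX staining in the red channel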", "conditions": "BODIPY lipid droplet fluorescence, 18-24 h; for cell number change: measured here: cell count max response, cells fed with added oleic acid", "how_it_was_run": "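Laser-scanning cytometry quantifies lipid droplet accumulation (500–530 nm total intensity; droplet/cell object ratio) in oleic acid-fed (400 uM added) Drosophila S3 cells treated with a concentration series. 20 uM Triacsin C defined 100% inhibition.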", "key": {"[1]": {"conditions": "measured here: lipid fluorescence (Fed channel) AC50, cells fed with added oleic acid"}, "[2]": {"conditions": "measured here: cell number channel AC50, cells fed with added oleic acid"}}, "note": "This is one part of the list. Shown are side measurements of this screen, not its main read-out; they come without a call. The list favours compounds with an active or inconclusive main result. Potencies come from curve fits of mixed quality, noted in brackets."}
{"smiles": "CCOC(=O)c1c(C)[nH]c(C)c1S(=O)(=O)NCCN1CCN(c2cc(Cl)ccc2C)CC1", "values": [{"measurement": "cell number change", "result": -14.1, "unit": "%"}, {"measurement": "AC50", "setting": "[1]", "result": "29.1 µM [falling, single point]"}]}
{"smiles": "COc1ccc(NC(=O)CN2CCN(S(=O)(=O)N(C)C)CC2)cc1", "values": [{"measurement": "cell number change", "result": 24.6, "unit": "%"}, {"measurement": "AC50", "setting": "[2]", "result": "0.651 µM [rising, full curve, poor fit]"}]}
{"smiles": "Cn1cccc1Cc1nnc(SCC(=O)N2CCCC2)n1CCc1ccccc1", "values": [{"measurement": "cell number change", "result": 51, "unit": "%"}, {"measurement": "AC50", "setting": "[2]", "result": "13 µM [rising, single point]"}]}
{"smiles": "Cc1ccc(-n2ccnc(SCC(=O)NC3CCCC3)c2=O)cc1F", "values": [{"measurement": "cell number change", "result": -20.3, "unit": "%"}, {"measurement": "AC50", "setting": "[1]", "result": "2.31 µM [falling, partial curve, poor fit]"}]}
{"smiles": "COc1ccc(NC(=O)C2C3CCC(O3)C2C(=O)O)cc1OC", "note": "(stereo not drawn)", "values": [{"measurement": "cell number change", "result": 0.549, "unit": "%"}, {"measurement": "AC50", "setting": "[1]", "result": "6.51 µM [falling, single point]"}]}
{"smiles": "Cc1ccc([N+](=O)[O-])cc1S(=O)(=O)Nc1cccc(-c2ccc(N3CCOCC3)nn2)c1", "values": [{"measurement": "cell number change", "result": 16.2, "unit": "%"}, {"measurement": "AC50", "setting": "[2]", "result": "1.84 µM [rising, partial curve, poor fit]"}]}
{"smiles": "COc1ccc(CN(CCC(c2ccc(F)cc2)C2CCOC(C)(C)C2)C(=O)c2ccco2)cc1", "note": "(stereo not drawn)", "values": [{"measurement": "cell number change", "result": 38.5, "unit": "%"}, {"measurement": "AC50", "setting": "[2]", "result": "2.31 µM [rising, partial curve]"}, {"measurement": "AC50", "setting": "[1]", "result": "2.91 µM [rising, single point]"}]}
{"smiles": "CCOC(=O)c1sc(Nc2nc3c(OC)cccc3s2)cc1C", "values": [{"measurement": "cell number change", "result": -48.1, "unit": "%"}, {"measurement": "AC50", "setting": "[2]", "result": "29.1 µM [falling, single point]"}]}
{"smiles": "Cc1cc(C)cc(OCC(=O)Nc2ccccc2C(=O)NCc2ccco2)c1", "values": [{"measurement": "cell number change", "result": -43.7, "unit": "%"}, {"measurement": "AC50", "setting": "[2]", "result": "16.4 µM [falling, partial curve]"}]}
{"smiles": "Cc1ccc(-c2noc(CCC(=O)Nc3ccccc3C)n2)cc1", "values": [{"measurement": "cell number change", "result": -28.3, "unit": "%"}, {"measurement": "AC50", "setting": "[1]", "result": "3.66 µM [rising, partial curve, poor fit]"}]}
{"smiles": "CCOc1cccc(-c2nnc3sc(C4CCCCC4)nn23)c1", "values": [{"measurement": "cell number change", "result": -29.7, "unit": "%"}, {"measurement": "AC50", "setting": "[1]", "result": "29.1 µM [rising, single point]"}]}
{"smiles": "COc1ccc2[nH]c3c(NCc4ccco4)ncnc3c2c1", "values": [{"measurement": "cell number change", "result": 12.3, "unit": "%"}, {"measurement": "AC50", "setting": "[2]", "result": "0.82 µM [rising, full curve, poor fit]"}, {"measurement": "AC50", "setting": "[1]", "result": "29.1 µM [rising, single point]"}]}
{"smiles": "CC(C)(O)C#Cc1ccc(C(=O)N2CCC(CCC(=O)NC3CC3)CC2)cc1", "values": [{"measurement": "cell number change", "result": 9.83, "unit": "%"}]}
{"smiles": "COc1cc(SC)ccc1C(=O)N(Cc1ccccc1)c1ccccn1", "values": [{"measurement": "cell number change", "result": -20.8, "unit": "%"}, {"measurement": "AC50", "setting": "[1]", "result": "29.1 µM [falling, single point]"}]}
{"smiles": "COc1ccc(S(=O)(=O)NNC(=O)C2Cc3c(ccc4ccccc34)O2)cc1", "note": "(stereo not drawn)", "values": [{"measurement": "cell number change", "result": -7.76, "unit": "%"}]}
{"smiles": "Cc1ccc2nnn(Cc3cccc(C(C)(C)C)c3O)c2c1", "values": [{"measurement": "cell number change", "result": -57.8, "unit": "%"}, {"measurement": "AC50", "setting": "[2]", "result": "18.4 µM [falling, single point]"}, {"measurement": "AC50", "setting": "[1]", "result": "10.3 µM [falling, partial curve, poor fit]"}]}
